# Measurements as given in patent US20100222410A1, “Nuclease compositions and methods” (Massachusetts Institute of Technology, priority 2008, published 2010).
# For at least one compound, name, drawing or mass did not settle the structure.
# Tested on: E. coli
# Assay: 17S rRNA accumulation after treatment of E. coli (total rRNA analysis)
# Format: cell-based
# Method: Polysome and rRNA analysis. Polysome profiles were obtained as described previously. rRNA was extracted from logarithmically growing cultures or separated ribosome fractions using Qiagen RNeasy Mini Kit. 16S and 23 rRNA were separated using Synergel/Agarose gel electrophoresis as described previously. […] The site-specific RNase H cleavage assay was performed as described previously followed by Northern hybridization using primers specific for the mature 3′termini of 16S, 23S, and 5S, respectively. 100 ng of total MC4100 or mutant RNA were used for each assay. All reactions were separated on denaturing polyacrylamide gels.
row,SMILES,accumulation of 17S rRNA
1,NC[C@H]1O[C@H](O[C@H]2[C@H](O)[C@@H](O[C@H]3O[C@H](CO)[C@@H](O)[C@H](N)[C@H]3O)[C@H](N)C[C@@H]2N)[C@H](O)[C@@H](O)[C@@H]1O [kanamycin],induce the rapid accumulation of 17S rRNA
2,CN(C)[C@@H]1C(O)=C(C(N)=O)C(=O)[C@@]2(O)C(O)=C3C(=O)c4c(O)cccc4[C@@](C)(O)[C@H]3C[C@@H]12 [tetracycline],induce the rapid accumulation of 17S rRNA
